No constants are given. Whether binding was seen depends on the method and setting. Binding calls can cover weak binding; strength is not graded here.
Molecular target: Human factor Xa (human, UniProt P00742 41-179; P00742 235-488, limits assumed)
Test: plate binding assay: peptide coated on microtiter wells, bound factor Xa detected with chromogenic substrate

By UniProt entry, the sequences of proteins in these tests, tags left out. Where a name states a change or a piece, a line headed by the entry shows the natural chain unless it says otherwise.
UniProt P00742: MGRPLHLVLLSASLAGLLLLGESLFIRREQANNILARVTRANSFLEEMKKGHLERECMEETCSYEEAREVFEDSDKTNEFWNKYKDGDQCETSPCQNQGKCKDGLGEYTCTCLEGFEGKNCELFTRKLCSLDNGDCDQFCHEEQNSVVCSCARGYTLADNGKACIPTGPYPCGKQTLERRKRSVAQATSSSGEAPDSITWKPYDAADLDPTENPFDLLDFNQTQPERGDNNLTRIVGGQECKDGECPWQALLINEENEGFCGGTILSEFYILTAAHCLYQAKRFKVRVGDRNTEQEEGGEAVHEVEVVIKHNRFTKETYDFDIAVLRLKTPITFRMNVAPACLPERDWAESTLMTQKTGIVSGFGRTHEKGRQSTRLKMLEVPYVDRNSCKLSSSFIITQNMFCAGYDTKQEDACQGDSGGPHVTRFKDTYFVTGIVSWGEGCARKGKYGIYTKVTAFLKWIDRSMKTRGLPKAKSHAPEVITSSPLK

binding: binds
Binder: ARCRGFLARVEYQRMVERREAIFCIQYNIRSFMNVKHWPW (C-terminal amide (-NH2)) [Peptide HC796-835 (human skeletal muscle myosin heavy chain MYH2 residues 796-835)]
